# At least one read-out could not be matched to a standard name with certainty.
# Tested on: citric acid induced cough
# Experiment: antitussive activity: citric acid induced cough test
# Type: in vivo
# Settings: guinea pig; 5 mg/kg i.p.
structure (smiles),measurement,value
"COc1ccc2c3c1O[C@H]1[C@@H](O)C=C[C@H]4[C@@H](C2)N(C)CC[C@@]341 [codeine phosphate, reference compound]",reduction in cough strokes,75.2%
